# Structures can show the parent of a compound that is named as a salt. Some of the results follow. Single values are uncertain here, since repeats match poorly.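 Test system: Schistosoma mansoni schistosomula, roughly 40 per well, imaged in bright field over time and compared with wells given 0.1% DMSO. Distance read-out: the paper calls a drug a hit when its Mahalanobis distance is at least 2.47, three standard deviations above the DMSO control mean. Degeneracy is the share of worms classified opaque.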 Numbered stars: 1 amine (or outer) side, 2 acyl side, 3 side chain; on linkers, the order of the positions; unused ones are H or OH. Bridge positions count the residues as written; N and C are the ends. Square brackets hold non-standard residues; d marks the D form. Peptide text beside a SMILES is read from it. I, II: the chains in the order shown. * marks the point of attachment. ξ: configuration not given here. Actinocin(9to1) = Cc1c2oc3c(C)ccc(C(=O)[*:1])c3nc-2c(C(=O)[*:2])c(N)c1=O; X2 = N=C1NCCC([C@H](N[*:1])C(=O)[*:2])N1; ΔAla(Z-3-ureido) = NC(=O)N/C=C(\N)C(=O)O; NMeV = CN[C@H](C(=O)O)C(C)C; ξβ3hOrn = NCCCC(N)CC(=O)*; Dap = NC[C@H](N)C(=O)O; Sar = CNCC(=O)O
# System: Schistosoma mansoni schistosomula
# Test: degeneracy (percent of somules classified as degenerate/opaque); higher = more parasite degeneration/death; extreme values may be limits of the assay
# Conditions: 10 µM; 72 h
row,Structure (SMILES),degeneracy [%]
1,Nc1nnc(-c2cccc(Cl)c2Cl)c(N)n1 [Lamotrigine],2.63
2,Clc1cc(Cl)c(OCC#CI)cc1Cl [Haloprogin],100
3,Cc1ccc(C(C)C)c(O)c1 [Thymol],12.5
4,CC1=C(C(=O)O)N2C(=O)[C@@H](NC(=O)[C@H](N)c3ccccc3)[C@H]2SC1 [Cephalexin],0
5,CC[C@H](C)C(=O)O[C@H]1C[C@H](O)C=C2C=C[C@H](C)[C@H](CC[C@@H](O)C[C@@H](O)CC(=O)O)[C@H]21 [Pravastatin],15.8
6,CC[C@H](C)C(=O)O[C@H]1C[C@H](O)C=C2C=C[C@H](C)[C@H](CC[C@@H](O)C[C@@H](O)CC(=O)O)[C@H]21 [Pravastatin Sodium],5.26
7,COc1ccc2cc3[n+](cc2c1OC)CCc1cc2c(cc1-3)OCO2 [Berberine Chloride],7.69
8,O=C(c1cccnc1)N1CCOCC1 [Nicopholine],7.32
9,Cc1nccn1CC1CCc2c(c3ccccc3n2C)C1=O (stereo not given) [Ondansetron],10.7
10,NC(=O)c1cc[n+](CC2=C(C(=O)[O-])N3C(=O)[C@@H](NC(=O)Cc4cccs4)[C@H]3SC2)cc1 [Cefalonium],0
11,O=C1C(O)=C(O)C(=O)C(O)=C1O [Tetroquinone],7.27
12,"Cc1c2oc3c(C)ccc(C(=O)N[C@@H]4C(=O)N[C@H](C(C)C)C(=O)N5CCC[C@H]5C(=O)N(C)CC(=O)N(C)[C@@H](C(C)C)C(=O)O[C@@H]4C)c3nc-2c(C(=O)N[C@@H]2C(=O)N[C@H](C(C)C)C(=O)N3CCC[C@H]3C(=O)N(C)CC(=O)N(C)[C@@H](C(C)C)C(=O)O[C@@H]2C)c(N)c1=O [Dactinomycin] (I: T[dV]P[Sar][NMeV] / II: T[dV]P[Sar][NMeV]; ester I:1-I:C, II:1-II:C; linker I:N-II:N via Actinocin(9to1))",100
13,COCCCOc1cc(C[C@@H](C[C@H](N)[C@@H](O)C[C@H](C(=O)NCC(C)(C)C(N)=O)C(C)C)C(C)C)ccc1OC [Aliskiren Hemifumarate],5.41
14,CCCCOC(=O)c1ccc(O)cc1 [Butylparaben],100
15,CC(=O)/N=c1/sc(S(N)(=O)=O)nn1C [Methazolamide],8.33
16,CC1=CC(=O)c2ccccc2C1=O [menadione],100
17,CCCCC1C(=O)N(c2ccccc2)N(c2ccccc2)C1=O [Phenylbutazone],8.33
18,Cc1ccc(C(=O)C(C)CN2CCCCC2)cc1 (stereo not given) [tolperisone],100
19,O=C(CCCCC(=O)Nc1c(I)cc(I)c(C(=O)O)c1I)Nc1c(I)cc(I)c(C(=O)O)c1I [iodipamide],10
20,O=C(O)Cc1cc(I)c(Oc2ccc(O)c(I)c2)c(I)c1 [Tiratricol],10.3
21,C=COCC(F)(F)F [Fluroxene],2.44
22,CC(=O)OCC(=O)[C@@]12OC3(CCCC3)O[C@@H]1C[C@H]1[C@@H]3CCC4=CC(=O)C=C[C@]4(C)[C@@]3(F)[C@@H](O)C[C@@]12C [Amcinonide],4

row,Structure (SMILES),degeneracy [%]
1,N=C(N)c1ccc(N=NNc2ccc(C(=N)N)cc2)cc1 [Diminazene Aceturate],14.3
2,CC#CCC(C)[C@H](O)/C=C/[C@@H]1[C@H]2C/C(=C/CCCC(=O)O)C[C@H]2C[C@H]1O (stereo not given in full) [Iloprost],3.33
3,CN1[C@@H]2CC[C@H]1C[C@@H](OC(c1ccccc1)c1ccccc1)C2 [Benztropine],10
4,CCOc1nc2cccc(C(=O)OCc3oc(=O)oc3C)c2n1Cc1ccc(-c2ccccc2-c2noc(=O)[nH]2)cc1 [Azilsartan Kamedoxomil],10.5
5,C1CCC(C(CC2CCCCN2)C2CCCCC2)CC1 (stereo not given) [perhexiline],100
6,CC(=O)[C@@]1(O)CC[C@H]2[C@@H]3C[C@H](C)C4=CC(=O)C=C[C@]4(C)[C@@]3(F)[C@@H](O)C[C@@]21C [Fluorometholone],3.03
7,CCc1nc(N)nc(N)c1-c1ccc(Cl)cc1 [Pyrimethamine],13.5
8,COc1cc(C(=O)NCc2ccc(OCCN(C)C)cc2)cc(OC)c1OC [Trimethobenzamide Hydrochloride],3.03
9,Clc1ccc(C(Cn2ccnc2)OCc2ccsc2Cl)c(Cl)c1 (stereo not given) [Tioconazole],100
10,O=C1/C(=C/c2cccs2)CCC/C1=C\c1cccs1 [tenylidone],22.2
11,C[C@H]1c2cccc(O)c2C(=O)C2=C(O)[C@]3(O)C(=O)C(C(N)=O)=C(O)[C@@H](N(C)C)[C@@H]3[C@@H](O)[C@@H]21 [Doxycycline],7.69
12,O=C(O)C(=O)O.[NH-][C@@H]1CCCC[C@H]1[NH-].[Pt+2] [Oxaliplatin],10.7
13,CCOC(=O)COc1ccc2c(=O)cc(-c3ccccc3)oc2c1 [Efloxate],18.8
14,C#Cc1cccc(Nc2ncnc3cc(OCCOC)c(OCCOC)cc23)c1 [Erlotinib],3.23
15,Cc1onc(-c2ccccc2Cl)c1C(=O)N[C@@H]1C(=O)N2[C@@H]1SC(C)(C)[C@@H]2C(=O)O [Cloxacillin],9.09
16,CC(C)Nc1cccnc1N1CCN(C(=O)c2cc3cc(NS(C)(=O)=O)ccc3[nH]2)CC1 [Delavirdine Mesylate],15.4
17,CN[C@@H]1[C@H](O)[C@H](NC)[C@H]2O[C@@]3(O)C(=O)C[C@@H](C)O[C@H]3O[C@@H]2[C@H]1O [Spectinomycin],8.7
18,NS(=O)(=O)c1cc2c(cc1Cl)NC(C(Cl)Cl)NS2(=O)=O (stereo not given) [Trichlormethiazide],9.68
19,CC(=O)NC(Cc1ccccc1)C(=O)O (stereo not given) [Afalanine],100
20,CCCCCCOC(=O)NC(=N)c1ccc(NCc2nc3cc(C(=O)N(CCC(=O)OCC)c4ccccn4)ccc3n2C)cc1 [Dabigatran Etexilate Mesylate],2.86
21,"NCCCC(=O)O [Gaba, Gamma-aminobutyric Acid]",5
22,CC12CCC(CC1=O)C2(C)C [D-camphor],17.9

row,Structure (SMILES),degeneracy [%]
1,C[C@@H]1NC(=O)[C@@H](N)CNC(=O)[C@H](C2CCNC(=N)N2)NC(=O)/C(=C/NC(N)=O)NC(=O)[C@H](CNC(=O)CC(N)CCCN)NC1=O.N=C1NCC[C@H]([C@@H]2NC(=O)/C(=C/NC(N)=O)NC(=O)[C@H](CNC(=O)C[C@@H](N)CCCN)NC(=O)[C@H](CO)NC(=O)[C@@H](N)CNC2=O)N1 [Capreomycin Sulfate] (H-[Dap]S[Dap](ξβ3hOrn)[ΔAla(Z-3-ureido)][X2]; lactam 1-C),2.94
2,CN[C@@H]1[C@@H](O[C@H]2O[C@H](CO)[C@@H](N)[C@H](O)[C@H]2O)OC2C[C@@H](N)[C@@H](O[C@H]3[C@H](O)[C@@H](O)[C@H](N)C[C@@H]3N)OC2[C@@H]1O (stereo not given in full) [Apramycin Sulfate],6.9
3,O=C(N[C@H](CO)[C@H](O)c1ccc([N+](=O)[O-])cc1)C(Cl)Cl [Chloramphenicol],0
4,CCC[C@@H]1C[C@@H](C(=O)N[C@@H]([C@H]2O[C@H](SC)[C@H](O)[C@@H](O)[C@H]2O)[C@H](C)Cl)N(C)C1 [Clindamycin Hydrochloride],3.57
5,C[n+]1c2cc(N)ccc2cc2ccc(N)cc21 [Acriflavinium Hydrochloride],100
6,C=C1/C(=C\C=C2/CCC[C@]3(C)[C@@H]([C@H](C)CCCC(C)C)CC[C@@H]23)C[C@@H](O)C[C@@H]1O [Alfacalcidol],1.72
7,CC(C)(CO)C(O)C(=O)NCCCO (stereo not given) [Panthenol],12.5
8,CCOc1ccc2ccccc2c1C(=O)N[C@@H]1C(=O)N2[C@@H]1SC(C)(C)[C@@H]2C(=O)O [Nafcillin Sodium],6.25
9,Cn1cnc2c1c(=O)[nH]c(=O)n2C [Theobromine],6.67
10,OCc1cccnc1 [Nicotinyl Alcohol Tartrate],4.76
11,CN(C)CCC=C1c2ccccc2COc2ccccc21 [Doxepin Hydrochloride],20
12,CN(C)CCC=C1c2ccccc2COc2ccccc21 [Doxepin],20.5
13,CN1[C@@H]2CC[C@H]1C[C@@H](OC(=O)c1c[nH]c3ccccc13)C2 [Tropisetron],7.69
14,Cc1cccc(C)c1OCC(C)N (stereo not given) [Mexiletine],2.17
15,NC[C@@H]1O[C@H](O[C@H]2[C@@H](O)[C@H](O[C@@H]3[C@@H](O)[C@H](N)C[C@H](N)[C@H]3O[C@H]3O[C@H](CO)[C@@H](O)[C@H](O)[C@H]3N)O[C@@H]2CO)[C@H](N)[C@@H](O)[C@@H]1O [Paromomycin Sulfate],3.64
16,CC[C@]1(O)C[C@H]2CN(CCc3c([nH]c4ccccc34)[C@@](C(=O)OC)(c3cc4c(cc3OC)N(C=O)[C@H]3[C@@](O)(C(=O)OC)[C@H](OC(C)=O)[C@]5(CC)C=CCN6CC[C@]43[C@@H]65)C2)C1 [Vincristine],20.8
17,Cc1c(N(C)C)c(=O)n(-c2ccccc2)n1C [Aminopyrine],6.98
18,CCN(CC)CCNC(=O)c1c(C)[nH]c(/C=C2\C(=O)Nc3ccc(F)cc32)c1C [Sunitinib Malate],100
19,CN(C)C(=O)C(CCN1CCC(O)(c2ccc(Cl)cc2)CC1)(c1ccccc1)c1ccccc1 [Loperamide],46.7
20,CO/N=C(\C(=O)N[C@@H]1C(=O)N2C(C(=O)O)=C(CSc3nnnn3C)CS[C@H]12)c1csc(N)n1 [Cefmenoxime Hydrochloride],18.2
21,C[C@H]1O[C@@H](O[C@H]2[C@@H](O)C[C@H](O[C@H]3[C@@H](O)C[C@H](O[C@H]4CC[C@@]5(C)[C@H](CC[C@@H]6[C@@H]5C[C@@H](O)[C@]5(C)[C@@H](C7=CC(=O)OC7)CC[C@]65O)C4)O[C@@H]3C)O[C@@H]2C)C[C@H](O)[C@@H]1O [Digoxin],100

# 4 neighbouring entries out of the list so far, for reference:
row,Structure (SMILES),degeneracy [%]
18,CCN(CC)CCNC(=O)c1c(C)[nH]c(/C=C2\C(=O)Nc3ccc(F)cc32)c1C [Sunitinib Malate],100
19,CN(C)C(=O)C(CCN1CCC(O)(c2ccc(Cl)cc2)CC1)(c1ccccc1)c1ccccc1 [Loperamide],46.7
20,CO/N=C(\C(=O)N[C@@H]1C(=O)N2C(C(=O)O)=C(CSc3nnnn3C)CS[C@H]12)c1csc(N)n1 [Cefmenoxime Hydrochloride],18.2
21,C[C@H]1O[C@@H](O[C@H]2[C@@H](O)C[C@H](O[C@H]3[C@@H](O)C[C@H](O[C@H]4CC[C@@]5(C)[C@H](CC[C@@H]6[C@@H]5C[C@@H](O)[C@]5(C)[C@@H](C7=CC(=O)OC7)CC[C@]65O)C4)O[C@@H]3C)O[C@@H]2C)C[C@H](O)[C@@H]1O [Digoxin],100
